Assay results: PubChem BioAssay AID977622 (Broad Institute, 2014)
Some of the results follow. Shown are side measurements of this screen, not its main read-out; they come without a call.

Tests used:
[1] = wild-type E. coli growth inhibition versus h38 humanized strain – h38 mutant RFP, wild-type GFP, cherry-pick, dose response (AID 977622); conditions: E. coli mixed culture, 24 h, total growth OD600 at 50 uM
[2] = tested on: E. coli h38 humanized mutant ribosome RFP fluorescence, mixed culture, 24 h; experiment: as above; conditions: h38 mutant RFP at 50 uM

Row | Compound | activity change [1] | activity change [2]
1 | O=[N+]([O-])c1ccc(/C=C/c2ccc3cccc([N+](=O)[O-])c3n2)cc1 | -2.69% | 
2 | COc1ccc(N2C(=O)C3C(C2=O)C3(c2ccccc2)c2ccccc2)cc1 (stereo unspecified) | -59.9% | 
3 | CCOc1ccc(CN(C)C(=O)c2ccc(NS(=O)(=O)c3ccc4[nH]c(=O)[nH]c4c3)cc2)cc1 | -24.4% | 1.49%
4 | CCCC(=O)N(CCc1ccc(OC)cc1)Cc1nc2ccccc2c(=O)[nH]1 |  | 7.93%
5 | CCn1ccnc1CN1CCCC(C(=O)c2ccc3cc(OC)ccc3c2)C1 (stereo unspecified) | -21.2% | 37.2%
6 | Cc1noc(C)c1S(=O)(=O)N(Cc1ccccc1)C(C)C | -11.3% | -14.6%
7 | CCOC(=O)c1cc2sccc2n1CCCN1C(=O)c2ccccc2C1=O | -53.1% | 
8 | Cc1ccc(N(CC(O)Cn2nc(C)cc2C)S(=O)(=O)c2ccc3ccccc3c2)cc1 (stereo unspecified) | -55.4% | 6.81%
9 | CC1CCN(CC(O)COCCC23CC4CC(CC(C4)C2)C3)CC1 (stereo unspecified) |  | -37.2%
10 | O=C(CCCOc1ccc(Cl)cc1Cl)Nc1ccccc1C(=O)O | -63.8% | -2.49%
11 | Cc1nc(-c2ccc([N+](=O)[O-])cc2)c(-c2ccccc2)o1 | -11.2% | -31.7%
12 | O=C(NCc1ccccc1Cl)[C@H]1CCCN1C(=O)[C@H]1CCCN1C(=O)c1cccc2ccccc12 | -40.8% | -2.66%
13 | CC(C)CNC(=O)c1cccc(NC(=O)C(C)Oc2ccccc2)c1 (stereo unspecified) | -14% | -22.7%
14 | C[C@@H]1CCCCO[C@H](CN(C)CC2CC2)[C@H](C)CN([C@@H](C)CO)C(=O)c2cc(NC(=O)Nc3cccc4ccccc34)ccc2O1 | -98.9% | -54.1%
15 | Cc1nn2c(NCc3ccccn3)cc(C(C)C)nc2c1-c1ccccc1 | -32.3% | 
16 | COc1ccc(-c2nc3c(C)cc(Br)cn3c2Cc2ccc(C)cc2)cc1OC | -49.7% | 17.7%
17 | O=C(C[C@H]1CC[C@@H]2[C@H](COC[C@H](O)CN2C(=O)Nc2ccc(Cl)cc2)O1)NCC1CC1 | -83.1% | 45.4%
18 | CN1c2ccc(C#Cc3cccnc3)cc2[C@@H]2[C@@H](CCN2C(=O)c2cccc(F)c2)[C@H]1CO | -43.9% | -22.2%
19 | Cc1nc2ncnn2c(N2CCC(C(=O)NC3CCCC3)CC2)c1Cc1ccccc1 | -28.8% | -38.5%
20 | C[C@@H]1CCCCO[C@@H](CN(C)C(=O)CCCN(C)C)[C@H](C)CN([C@H](C)CO)C(=O)c2cc(NC(=O)Nc3cccc4ccccc34)ccc2O1 | -10.7% | 9.41%
21 | CCc1cccc2c1Sc1ccccc1CC2N1CCNCC1 (stereo unspecified) | -98.9% | -64.4%
22 | C[C@@H]1CCCCO[C@H](CN(C)CC2CCCCC2)[C@H](C)CN([C@@H](C)CO)C(=O)c2cc(NC(=O)Nc3cccc4ccccc34)ccc2O1 | -67.7% | 142%

Random excerpt: 6 records from the list.
Row | Compound | activity change [1] | activity change [2]
18 | CN1c2ccc(C#Cc3cccnc3)cc2[C@@H]2[C@@H](CCN2C(=O)c2cccc(F)c2)[C@H]1CO | -43.9% | -22.2%
5 | CCn1ccnc1CN1CCCC(C(=O)c2ccc3cc(OC)ccc3c2)C1 (stereo unspecified) | -21.2% | 37.2%
3 | CCOc1ccc(CN(C)C(=O)c2ccc(NS(=O)(=O)c3ccc4[nH]c(=O)[nH]c4c3)cc2)cc1 | -24.4% | 1.49%
14 | C[C@@H]1CCCCO[C@H](CN(C)CC2CC2)[C@H](C)CN([C@@H](C)CO)C(=O)c2cc(NC(=O)Nc3cccc4ccccc34)ccc2O1 | -98.9% | -54.1%
2 | COc1ccc(N2C(=O)C3C(C2=O)C3(c2ccccc2)c2ccccc2)cc1 (stereo unspecified) | -59.9% | 
9 | CC1CCN(CC(O)COCCC23CC4CC(CC(C4)C2)C3)CC1 (stereo unspecified) |  | -37.2%

Later entries

Row | Compound | activity change [1] | activity change [2]
23 | Cc1nn(-c2ccccc2)c(C)c1NC(=O)COc1ccc2ccccc2c1 | -58.4% | 
24 | COC(=O)CN1C(=S)N(c2ccc(Cl)cc2)C(=O)C1CC(=O)Nc1ccc(F)cc1 (stereo unspecified) | -43.6% | -30.4%
25 | O=[N+]([O-])c1ccc(O)c(CSc2nnnn2-c2ccccc2)c1 | -4.26% | 33.4%
26 | O=C(COn1nnc2ccc(C(F)(F)F)cc21)Nc1c(Cl)cccc1Cl | -31.7% | 22.2%
27 | Cc1ccc(CNC(=O)c2ccc(Br)o2)cc1 | -40.7% | 56.4%
28 | O=S(=O)(Nc1ccc(-c2cnco2)cc1)c1ccccc1 | -28.2% | -8.88%
29 | O=C1c2ccccc2S(=O)(=O)c2cc(N3CCC(C(=O)N4CCCCC4)CC3)ccc21 | -34.2% | -22.3%
30 | Cc1cccc(-c2noc(-c3ccccc3C(=O)NCc3ccco3)n2)c1 | -20.6% | -11.2%
31 | CCCC[n+]1ccn(-c2nc3ccccc3nc2[N-]S(=O)(=O)c2cccs2)c1 | -21.8% | 23.6%
32 | COC(=O)c1cc2ccccc2n1S(=O)(=O)c1ccccc1 | -25.6% | -16.3%
33 | COc1ccccc1CNC(=O)c1cc2sccc2n1C | -31.5% | 10.1%
34 | CCCCNC(=O)c1cc2c(C)cc(C)cc2[nH]1 | -41.2% | 22.6%
35 | CN(C)CCCN(C(=O)COc1ccc(Cl)cc1)c1nc2ccc(F)cc2s1 | -13.8% | -14.6%
36 | NS(=O)(=O)c1cccc(NC(=O)CSc2nc3ccccc3n2-c2ccccc2)c1 | -66.3% | -32.2%
37 | O=C(c1cnc(Cc2c[nH]c3ccccc23)c(I)c1)N1CCCCC1 | -66.9% | -28.3%
38 | O=[N+]([O-])c1ccc2nc(-c3ccccc3[N+](=O)[O-])[nH]c2c1 | -22.8% | -33.3%
39 | O=S(=O)(NCc1cc(-c2ccccc2)no1)c1ccccc1Cl | 6.16% | -36.8%
40 | COc1cccc(S(=O)(=O)N2CCCCN3[C@@H](CO)[C@H](c4ccc(C#CC(C)C)cc4)[C@@H]3C2)c1 | -96.9% | -45.6%
41 | O=C(CN1c2ccccc2S(=O)(=O)c2ccccc21)NCc1ccc(F)cc1 | -37.4% | 1.24%
42 | Cc1ccc(C#CC[N+](C)(C)CC#Cc2ccccc2)cc1 | -40.9% | 
43 | O=C(O)c1ccc2c(c1)N(Cc1ccc(F)cc1)C(=O)c1ccccc1S2 | -38.9% | -0.437%
44 | C[C@@H]1CN([C@@H](C)CO)C(=O)c2cc(NC(=O)Nc3cccc4ccccc34)ccc2O[C@@H](C)CCCCO[C@H]1CN(C)C(=O)CCCN(C)C | 0.911% | 9.37%

Row | Compound | activity change [1] | activity change [2]
45 | NS(=O)(=O)c1ccc(NC(=O)CCC(=O)O)cc1 | 6.36% | 
46 | CC(C)c1cc(C(N)=O)c(NC(=O)C2CCC2)s1 | -35.6% | -21.6%
47 | O=C(Nc1nc2ccccc2n1CCN1CCOCC1)c1ccccc1 | -18.4% | 4.35%
48 | O=C(Nc1cccc(Cl)c1)N1C[C@H]2[C@@H](c3ccccc31)[C@H](CO)N2CC1CCCCC1 | -77.8% | 69.3%
49 | CCCN(CC1CC1)C(=O)CSc1ncnc2sccc12 | -30.9% | 28.3%
50 | COc1ccc(-c2cc(C(=O)NCc3ccc(C(F)(F)F)cc3)[nH]n2)c(C)c1 | -70.6% | 12.3%
51 | COC(=O)CC1COc2ccccc2N1C(=O)c1ccc(Br)cc1 (stereo unspecified) | -1.78% | 0.375%
52 | C=CCN(c1ccccc1)S(=O)(=O)c1ccc(Cl)c(C(=O)OCC(=O)NCCCN2CCCC2=O)c1 |  | -23%
53 | CCOC(=O)CN1C(=O)C(CC)Oc2ccc(Cl)cc21 (stereo unspecified) | -10.8% | 
54 | NC(=O)c1cccnc1Oc1ccc(Cl)cc1Cl |  | -21.1%
55 | CCN(CC)CCN(C(=O)c1ccc2c(c1)CCCC2)c1nc2ccc(F)cc2s1 | -51.1% | -5.41%
56 | CCOC(=O)C1CCCN(C(=O)c2csc(-c3ccc4c(c3)CCO4)n2)C1 (stereo unspecified) | -30.4% | 
57 | COc1ccc(C)cc1-n1c(=O)c2ccccc2c2ccccc2c1=O | -44.6% | -5.29%
58 | Cn1cc(CN2CCCC(C(=O)c3cccs3)C2)c(-c2cccc(Cl)c2)n1 (stereo unspecified) | -6.54% | -2.24%
59 | CCN(CC)S(=O)(=O)c1ccc(N2CCCC2)c(NC(=O)c2ccc([N+](=O)[O-])o2)c1 | -39.9% | -29.7%
60 | CCC1CCCCN1C(=O)CSc1nnc(-c2cccc(Cl)c2)o1 (stereo unspecified) | -13.3% | -9.72%
61 | COc1ccc(OC2C(=O)N(Cc3ccc4c(c3)OCO4)C2c2sccc2C)cc1 (stereo unspecified) | -41.4% | -6.23%
62 | COc1ccc(-c2ccc3ccccc3n2)cc1OC | -42% | -10.2%
63 | O=C(NCCc1ccccc1)c1cccc(NC(=O)c2ccccc2)c1 | -32.1% | -22.4%
64 | CCN(CC(=O)Nc1cccc(S(=O)(=O)N2CCCC2)c1)CC(=O)Nc1ccccc1OC | -10.9% | 
65 | COCc1c(C#N)c(NCCc2ccc(F)cc2)nc(C)c1[N+](=O)[O-] | -4.25% | -0.972%
66 | Cc1ccc2sc(N(CCCN(C)C)C(=O)c3ccc(S(=O)(=O)N4CCc5ccccc5C4)cc3)nc2c1C | -46.1% | -3.86%

Row | Compound | activity change [1] | activity change [2]
67 | Nc1ccccc1Sc1c[nH]c2ccccc12 | -14.6% | 11.3%
68 | Cc1ccc(C2NC(c3ccc(C)cc3)C(C)C(=O)C2C)cc1 (stereo unspecified) | -14.8% | -5.65%
69 | CCCCCCC(=O)N1CCCC(c2nc(-c3cccc(OC)c3)no2)C1 (stereo unspecified) | -30% | 31.5%
70 | CCCN1C(=O)C(O)(c2c(C)[nH]c3ccccc23)c2ccccc21 (stereo unspecified) | -14.9% | -14.2%
71 | O=S(=O)(NC1CC1)c1ccc(S(=O)(=O)N2CCc3ccccc32)cc1 | -30.1% | -12.3%
72 | O=C(COC(=O)CCC(=O)c1ccc(F)cc1)NCCc1ccccc1 | -20.8% | 
73 | Cc1cc(C(=O)NCCC2=CCCCC2)ccc1[N+](=O)[O-] | -24.9% | 14.4%
74 | CCOc1ccc(OCC)c(NC(=O)CSc2nc3cccnc3n2C)c1 | -59.3% | -18.3%
75 | CN(c1cccc(NC(=O)c2ccc(CN3CCc4ccccc4C3)cc2)c1)S(C)(=O)=O | -38.1% | 14.3%
76 | Cc1cc(-c2ccc(C)c(S(=O)(=O)NC(C)Cc3ccco3)c2)on1 (stereo unspecified) | -63.9% | -15%
77 | Cc1ccc(NC(=O)C[n+]2cc(-c3ccccc3)n3c2CCC3)cc1 | -20.4% | 20.6%
78 | Cc1cccc(-c2ccc([C@@H]3[C@H](CO)N4CCCCN(S(=O)(=O)c5ccccc5C)C[C@@H]34)cc2)c1 | -47.5% | 242%
79 | Cc1cccc(OCCNc2ncccc2[N+](=O)[O-])c1 | -24.7% | 
80 | CN1CCN(C(=O)C[C@H]2CC[C@H]3[C@@H](COC[C@@H](O)CN3C(=O)Nc3ccc(Cl)cc3)O2)CC1 | -51.3% | 52.5%
81 | O=C(Nc1ccccc1F)N1C[C@@H]2[C@H](c3ccccc31)[C@@H](CO)N2C(=O)Cc1ccccc1 | -94.9% | 9.31%
82 | CNC(=O)C[C@H]1CC[C@@H]2[C@@H](COc3ccc(NC(=O)Nc4ccc(F)c(F)c4)cc3C(=O)N2C)O1 | -17% | 0.849%
83 | COC(=O)[C@]1(Sc2ccc(C)cc2)CC(=O)N[C@@H]1c1ccccc1 | -25.6% | -2.6%
84 | Cc1ccc(S(=O)(=O)Nc2ccc3c(c2)C(=O)N([C@@H](C)CO)C[C@@H](C)[C@H](CN(C)C(=O)c2ccccc2)OCCCC[C@@H](C)O3)cc1 | -52.2% | 67.4%
85 | Cc1ccccc1-n1nnnc1SCCCC(=O)c1ccc(F)cc1 | -51.3% | -19.8%
86 | O=C(Cc1ccc(Br)cc1)Nc1cccc(-c2cn3c(n2)SCC3)c1 | -25.7% | -11.9%
